Patent US20140088124A1, “IMIDAZOLE DERIVATIVES” (priority 2011, published 2014)

The chains behind the UniProt entries cited, without tags or fusion partners.
UniProt O75907, whole entry: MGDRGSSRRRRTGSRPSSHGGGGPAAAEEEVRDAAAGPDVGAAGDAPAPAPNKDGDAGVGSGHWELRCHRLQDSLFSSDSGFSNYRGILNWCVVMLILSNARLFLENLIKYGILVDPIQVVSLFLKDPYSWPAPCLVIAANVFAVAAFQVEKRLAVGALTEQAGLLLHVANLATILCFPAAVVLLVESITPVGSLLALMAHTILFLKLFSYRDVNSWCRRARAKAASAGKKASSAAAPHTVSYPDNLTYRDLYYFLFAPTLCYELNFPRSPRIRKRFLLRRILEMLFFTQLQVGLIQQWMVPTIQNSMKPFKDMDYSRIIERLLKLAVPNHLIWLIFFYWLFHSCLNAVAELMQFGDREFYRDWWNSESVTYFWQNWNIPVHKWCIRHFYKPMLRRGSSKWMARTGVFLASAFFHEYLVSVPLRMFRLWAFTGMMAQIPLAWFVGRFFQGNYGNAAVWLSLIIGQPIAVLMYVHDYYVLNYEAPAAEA

Target: human DGAT1 (Homo sapiens, UniProt O75907)
Test: DGAT1 CPM Assay
Details: human DGAT1, CPM fluorescence, 1 hour incubation at room temperature; tested form: TFA

**Q.** For `CC(C)(C)S(=O)(=O)NC(=O)[C@H]1CC[C@H](OC2CCN(c3ccc(-c4nc5cc(F)ccc5[nH]4)cn3)CC2)CC1`, which IC50 is on record?
**A.** The IC50 was 15 nM.

Structures were worked out from names or drawings and are uncertain.
